Our source for the Kd values is BindingDB's records for doi:10.7270/Q28S4TSS (D3R/Abbott, 2020).

The chains behind the UniProt entries cited, without tags or fusion partners. Where a name states a change or a piece, a line headed by the entry shows the natural chain unless it says otherwise.
UniProt O60674: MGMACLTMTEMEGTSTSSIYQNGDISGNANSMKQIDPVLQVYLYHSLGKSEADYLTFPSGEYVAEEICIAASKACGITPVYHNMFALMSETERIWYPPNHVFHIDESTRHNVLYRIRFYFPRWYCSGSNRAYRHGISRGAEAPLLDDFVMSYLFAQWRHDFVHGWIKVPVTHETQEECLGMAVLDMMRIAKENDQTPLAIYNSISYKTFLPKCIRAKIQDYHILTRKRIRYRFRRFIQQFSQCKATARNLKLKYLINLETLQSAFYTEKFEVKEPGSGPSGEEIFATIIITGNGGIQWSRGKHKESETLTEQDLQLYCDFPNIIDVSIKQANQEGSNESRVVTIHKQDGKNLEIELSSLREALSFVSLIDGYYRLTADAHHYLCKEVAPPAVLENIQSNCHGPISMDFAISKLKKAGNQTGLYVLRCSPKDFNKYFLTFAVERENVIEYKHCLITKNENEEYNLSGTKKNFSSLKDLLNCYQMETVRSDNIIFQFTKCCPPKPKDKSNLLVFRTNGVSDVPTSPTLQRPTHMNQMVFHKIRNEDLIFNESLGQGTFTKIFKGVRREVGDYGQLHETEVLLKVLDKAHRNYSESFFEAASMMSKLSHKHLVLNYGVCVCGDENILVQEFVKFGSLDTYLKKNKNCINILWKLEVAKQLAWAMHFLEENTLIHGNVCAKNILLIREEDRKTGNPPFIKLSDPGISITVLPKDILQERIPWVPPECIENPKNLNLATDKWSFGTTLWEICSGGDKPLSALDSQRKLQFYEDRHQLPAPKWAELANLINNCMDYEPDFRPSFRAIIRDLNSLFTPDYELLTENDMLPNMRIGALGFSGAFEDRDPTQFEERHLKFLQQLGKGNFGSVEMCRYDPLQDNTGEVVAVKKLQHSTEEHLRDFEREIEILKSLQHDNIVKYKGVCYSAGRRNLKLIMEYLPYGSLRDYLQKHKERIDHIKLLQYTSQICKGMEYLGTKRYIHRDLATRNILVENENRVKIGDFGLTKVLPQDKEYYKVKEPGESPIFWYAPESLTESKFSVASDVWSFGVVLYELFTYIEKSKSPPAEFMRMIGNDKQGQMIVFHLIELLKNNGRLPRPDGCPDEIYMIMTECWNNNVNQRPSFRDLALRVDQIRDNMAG

In this assay the target is Tyrosine-protein kinase JAK2 (Homo sapiens, UniProt O60674).

One may read the Kd as the constant that tells how readily two partners part at equilibrium. The compound `Cc1cc(C)cc(Oc2nccc(-c3c(-c4ccc(F)cc4)ncn3C3CCNCC3)n2)c1` [2-(3,5-Dimethyl-phenoxy)-4-[5-(4-fluoro-phenyl)-3-piperidin-4-yl-3H-imidazol-4-yl]-pyrimidine] had a Kd of 10 µM.
Consider `CS(=O)(=O)c1ccccc1-c1nc(-c2ccc(F)cc2)c(-c2ccncc2)[nH]1` [D3RKN_30], for which binding was characterised by a dissociation constant (Kd) of 10 µM.
Next, `O=C(O)c1ccc(-c2nc(-c3ccc(F)cc3)c(-c3ccncc3)[nH]2)cc1` [D3RKN_53]: 10 µM.
